Measured values published in paper PMC6303091.
These are yes or no findings as the source states them, for the method shown. A result given as binding can be weak or reduced; the word gives no strength.

Molecular target: T1, TOPLESS amino-terminal region (TPL-N), bait (A. thaliana) (UniProt Q94AI7)
T1 sequence: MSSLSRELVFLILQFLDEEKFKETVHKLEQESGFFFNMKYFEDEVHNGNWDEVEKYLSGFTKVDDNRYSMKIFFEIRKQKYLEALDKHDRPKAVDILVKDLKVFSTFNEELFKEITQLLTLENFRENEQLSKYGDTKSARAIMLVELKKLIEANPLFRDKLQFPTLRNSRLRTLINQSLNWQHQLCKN
Experiment: two-hybrid; library screen (Y2H-seq): PJ69-4α bait strain transformed with the A. thaliana AT7 cDNA prey library; SD-Leu-Trp-His + 5 mM 3-AT; preys identified by Sanger sequencing of colonies, qPCR and NGS of pooled prey inserts, against an EMPTY bait screen or the library

Row | Substance | binding
1 | AT2G40260, library prey (A. thaliana) | binds
2 | AT3G05670, library prey (A. thaliana) | binds
3 | AT3G54390, library prey (A. thaliana) | binds
